Data published in PubChem BioAssay AID1053192 (Broad Institute, 2014).
The shares of active, inactive and inconclusive entries below differ from those in the screen. The source made the active and inactive calls.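 The calls were made as follows: active = cytotoxic compounds whose falling curve has a midpoint dose at most twice the top valid dose; inconclusive = flat fit losing 30 to 70% signal, or poor fit; inactive = the rest.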

Assay: HepG2 cell cytotoxicity, dose response, cytotoxicity control, CellTiter-Glo luminescence, 72 h, dry powder (AID 1053192)
Settings: HepG2 viability, CellTiter-Glo ATP luminescence; at 50 µM (top of the series)

| Compound | activity change, negative = cytotoxicity |
| --- | --- |
| Cc1cc2cc(CNC(=O)Nc3cccc(Cl)c3)ccc2n1C | inconclusive: -23.6% |
| COc1cc(CC2C(=O)Nc3ccccc32)cc(C)c1O (stereo not given) | inconclusive: 0.296% |
| O=C(c1c(F)cccc1F)N(Cc1ccccc1)Cc1ccccc1 | inactive: -4.81% |
| Cc1ccc(CSc2nc3[nH]ncc3c(=O)[nH]2)cc1 | inactive: -34.4% |
| CCc1ccc(-n2c(=S)sc3c(=O)n(-c4ccccc4C)c(SCC(=O)O)nc32)cc1 | inconclusive: -20.2% |
